No constants are given. Whether binding was seen depends on the method and setting. Some binding calls cover weakened binding; strength is not graded here.
Tests used:
[1] = target: RAGE-Fc chimera protein (BioTechne, 1145-RG) (UniProt Q15109); assay: BLI: RAGE-Fc on AHC sensors, HMGB1 construct 0-25 µM in solution; response against concentration
[2] = target: RAGE-Fc chimera protein (BioTechne, 1145-RG) (UniProt Q15109); assay: RAGE binding ELISA
[3] = target: RAGE-Fc chimera protein (BioTechne, 1145-RG) (UniProt Q15109); assay: RAGE binding ELISA and BLI
[4] = target: RAGE-Fc chimera protein (BioTechne, 1145-RG) (UniProt Q15109); assay: hybrid ELISA, saturation fits (FIG. 8A)
[5] = target: RAGE-Fc chimera protein (BioTechne, 1145-RG) (UniProt Q15109); assay: hybrid ELISA: HMGB1 construct coated, RAGE-Fc titrated, anti-human IgG-HRP, OD450 normalized to DS-HMGB1
[6] = target: RAGE-Fc chimera protein (BioTechne, 1145-RG) (UniProt Q15109); assay: BLI, RAGE-Fc on AHC sensors, HMGB1 construct 0-25 µM
[7] = target: RAGE-Fc chimera protein (BioTechne, 1145-RG) (UniProt Q15109); assay: BLI interferograms: RAGE-Fc on AHC sensors, HMGB1 construct in rising concentration (two series, six sensors)
[8] = target: RAGE-Fc chimera protein (BioTechne, 1145-RG) (UniProt Q15109); assay: RAGE binding ELISA, HMGB1 coated at 40 nM, RAGE-Fc 0-640 nM

Protein sequences, listed by entry. Tags and fused reporters are not part of them. Lines headed by an entry give the natural chain unless they say otherwise; changes in a name come on top. Residues count along the entry.
UniProt Q15109, residues 24-344: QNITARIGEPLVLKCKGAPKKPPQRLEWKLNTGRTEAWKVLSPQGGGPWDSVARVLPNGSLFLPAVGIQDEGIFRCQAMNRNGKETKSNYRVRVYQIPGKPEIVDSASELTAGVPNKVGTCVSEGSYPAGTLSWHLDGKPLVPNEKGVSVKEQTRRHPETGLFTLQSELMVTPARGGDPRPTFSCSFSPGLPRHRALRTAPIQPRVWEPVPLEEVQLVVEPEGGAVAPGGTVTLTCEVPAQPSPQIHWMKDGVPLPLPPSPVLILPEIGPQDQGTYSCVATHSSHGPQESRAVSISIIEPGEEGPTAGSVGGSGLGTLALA
UniProt P09429: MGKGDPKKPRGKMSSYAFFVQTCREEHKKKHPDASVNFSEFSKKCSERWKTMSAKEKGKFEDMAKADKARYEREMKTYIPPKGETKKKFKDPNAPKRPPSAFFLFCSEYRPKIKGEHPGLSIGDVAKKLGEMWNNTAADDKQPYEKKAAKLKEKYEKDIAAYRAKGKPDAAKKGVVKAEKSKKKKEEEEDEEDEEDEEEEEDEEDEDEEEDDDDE

binding [1]	binding [2]	binding [3]	binding [4]	binding [5]	binding [6]	binding [7]	binding [8]	Substance
binds	binds	binds	binds	binds	binds	binds	binds	fully-reduced HMGB1, full-length (1-214) (from UniProt P09429 2-215) (ligand)
binds	binds		binds	binds	binds	binds	binds	disulfide HMGB1, full-length (from UniProt P09429 2-215) (ligand)
binds				binds	binds	binds	binds	DS-HMGB1 1-164 (from UniProt P09429 2-165) (ligand)
binds				binds	binds	binds	binds	DS-HMGB1 1-184 (from UniProt P09429 2-185) (ligand)

Reference: patent publication US20230046828A1
